# In patent publication US12559733B2, “Optimization of type IV BRAF inhibitors for the treatment of melanoma” (UNIVERSITY OF SOUTH CAROLINA, priority 2020, dated 2026):
# At least one structure is not confirmed: it was looked up by name or label, or the drawing left a doubt.
# Tested on: NRASQ61K-mutant SBcl2 melanoma cells
# Test: Western blotting of MEK/ERK signalling in melanoma cells treated with peptide and PLX4032
# Assay type: cell-based, human
# Conditions: FIG. 2B, […] peptide three days, 1 μM vemurafenib four hours prior to harvest
smiles,measurement,value
"CCCS(=O)(=O)Nc1ccc(F)c(C(=O)c2c[nH]c3ncc(-c4ccc(Cl)cc4)cc23)c1F [vemurafenib (PLX4032), vemurafenib, reference compound]","expression and phosphorylation of MEK, ERK and FRA1 on vemurafenib treatment","upregulated the expression and phosphorylation of MEK, ERK, and its target FRA1"
